Assay results reported in patent US8703483B2, “Reagents and methods for using human embryonic stem cells to evaluate toxicity of pharmaceutical compounds and other chemicals” (Wisconsin Alumni Research Foundation, priority 2006, dated 2014).
At least one compound was matched to its structure with a doubt left.

Key:
[1] = tested on: H1/NIH code WA01 hES cells; assay: Quantitative real-time PCR of epigenetic regulators and developmental genes in VPA-treated hESCs; type: cell-based, human
Method: Treated and control H1/NIH code WA01 hES cells (passage 41) were analyzed by real-time PCR, and each treatment group was paired with a corresponding control group that received the standard growth media combination of CM+bFGF without VPA. In these studies, total cellular RNA was extracted from cells harvested at 24 hours (24 H), 4 days (4 D) and 8 days (EC) using the RNA Easy Kit (Qiagen, Valencia, Calif.) according to the manufacturer's instructions.
Expression levels of candidate test genes and a housekeeping gene (Beta-2-microglobulin) were evaluated by quantitative real-time PCR using a DNA Engine-Opticon 2 Detection System (MJ Research, Watertown, Mass.). The housekeeping gene acts as an internal control for normalization of RNA levels. The primers used for real-time PCR reactions were designed using Beacon Designer software (Premier Biosoft International, Palo Alto, Calif.). RNA was reverse transcribed using iScript cDNA Synthesis kit (Bio-Rad, Hercules, Calif.), wherein each cDNA synthesis reaction (20 μL) included 4 μL of 5× iScript reaction mix, 1 μL of iScript reverse transcriptase, and 2 μL of RNA. PCR was performed on cDNA in PCR reaction mixtures (25 μL) each containing 12.5 μL of Supermix (contains dNTPs, Taq DNA polymerase, SYBR Green I, and fluorescein), 250 nM forward primer, 250 nM reverse primer, and 1.6 μL RT-PCR products. Melting curve analysis and agarose gel electrophoresis were performed after real-time PCR reaction to monitor PCR specificity, wherein PCR products were detected with SYBR Green I using the iQ SYBR Green Supermix kit (Bio-Rad).
Quantifying the relative expression of real-time PCR was performed using the 2-ΔΔCt method (Livak & Schmittgen, 2001, Methods 25:402-8), and a general linear model was employed to fit the expression data. The PROC GLM procedure in SAS (version 8.2; SAS Institute, Cary, N.C.) was used to estimate least squares means in expression between treated and untreated hESCs and P<0.05 was considered statistically significant […]

[2] = tested on: neuronal precursors derived from hESCs; assay: Metabolite profiling of neural precursors derived from hESCs treated with valproate; type: cell-based, human; settings: 1 mM valproate
Excerpt: Metabolomic assessment of teratogens on embryonic development is not limited exclusively to hESCs.

[3] = tested on: human embryonic stem cells; assay: RT-PCR of kynurenine pathway and serotonin synthesis enzymes in valproate-treated hES cells; type: cell-based
[4] = tested on: undifferentiated human embryonic stem cells (H1 and H9 hESC); assay: Metabolite profiling (LC/ESI-TOF-MS) of supernatant of hESCs treated with valproate; type: cell-based
Method: Masses were binned together if they were within 10 ppm and eluted within a 2 minutes retention time window. […] Binning of the data is required for statistical analysis and comparison of masses across the entire experiment. If multiple peaks with the same mass at the same retention time within a single sample were detected by Mass Hunter, they were averaged to assist data analysis.
As used herein, a mass was considered to be the same across LC/ESI-TOF-MS runs using a simple algorithm that first sorts the data by mass and retention time. […] If a series of measurements fit this definition it was considered to be from the same compound. If either the mass or the retention time varied by more than the limits listed above it was considered to be a different compound and given a new unique designation.

[5] = tested on: human embryonic stem cells; assay: Viability and pluripotency (Oct-4, morphology) of hESCs after valproate exposure; type: cell-based; settings: 5 and 8 days valproate vs control

CCCC(CCC)C(=O)O [valproate]
Down-regulation of sonic hedgehog in comparison to untreated controls ([1]; 4 days after treatment): five-fold | Expression of DNA methyltransferase-1 (DNMT-1) ([1]; 4 days after treatment): almost abolished | Expression of the genes tested in comparison to untreated controls ([1]; 8 days after treatment): majority of the genes were upregulated | Indoleacetaldehyde (159.0689) level [2]: marked decrease | Serotonin (176.0946) level [2]: marked decrease | TDO2 (tryptophan 2,3-dioxygenase) expression in comparison to untreated controls ([3]; 1 mM valproate, four days): upregulated | KMO (kynurenine 3-monooxygenase) expression ([3]; valproate-treated cells or controls): not expressed | Change in VPA treated hESCs vs untreated controls: GLUTATHIONE OXIDIZED (exact mass 612.15, RT 17) ([4]; 1 mM valproate, 4 Days): DOWN | Change in VPA treated hESCs vs untreated controls: GLUTATHIONE OXIDIZED (exact mass 612.15, RT 17) ([4]; 1 mM valproate, 24 Hours): DOWN | Change in VPA treated hESCs vs untreated controls: SAM OXOBUTANOATE (exact mass 398.21, RT 39) ([4]; 1 mM valproate, 24 Hours): DOWN | Change in VPA treated hESCs vs untreated controls: TETRAHYDROFOLATE (exact mass 472.16, RT 17) ([4]; 1 mM valproate, 24 Hours): ZERO | Production of kynurenine (exact neutral mass 208.08) ([4]; hES cells exposed to valproate): significantly upregulated | Pluripotency marker Oct-4 following extended culture [5]: retained in a similar manner as untreated controls
